About 780 (0.22%) of roughly 360,000 compounds were called active. The shares of active, inactive and inconclusive entries below differ from those in the screen. No stated cut-off is given here; in the data, active means inhibition above about 35% (passing the limit was not always enough); inconclusive means no clear call, values can overlap the other calls.
system: Botulinum neurotoxin type F light chain protease (Clostridium botulinum); experiment: BoNT/F light chain protease inhibitors, primary screen, biochemical, flow cytometry, MLPCN library (AID 588497); settings: Multiplex microsphere protease cleavage assay, at 10 µM, stronger effect = higher value; further: plate controls were buffer without enzyme for full effect and enzyme alone for no effect

Structure (SMILES) | inhibition
OC[C@@H](O)[C@H](O)C(/C=N/Nc1ccccc1)=N\Nc1ccccc1 | inconclusive: 19.3%
C[C@@H]1CN([C@H](C)CO)C(=O)c2cc(Br)cnc2O[C@@H]1CN(C)C(=O)Cc1ccccc1 | inactive: -4.3%
COc1ccc(OC)c(CNc2ccc3c(c2)CCC3)c1 | inconclusive: -36.4%
CC(=O)NS(=O)(=O)c1ccc(NC(=O)c2ccccc2F)cc1 | inactive: -2.4%
CC1CCCCC1NC(=O)c1cn(C)c2ccc(S(=O)(=O)N3CCCC3)cc2c1=O (stereo unspecified) | inactive: -2.7%
CCOc1ccc(C(C(=O)NC2CCCCC2)N(CCOC)C(=O)c2snc(C(N)=O)c2N)cc1 (stereo unspecified) | inconclusive: -8.2%
CCCCC1=CC2=CC(=O)C(C)(OC(=O)CC)C(=O)C2=CN1Cc1ccccc1 (stereo unspecified) | inactive: -21%
Cc1sc2nc(SCCO)n(-c3ccccc3)c(=O)c2c1C | inconclusive: -31%
COc1cc(C2CC(=O)C3=C(C2)Nc2ncnn2C3c2cccs2)cc(OC)c1OC (stereo unspecified) | inactive: 3.9%
CCOC(=O)C1(C)CCN1C(=O)COc1ccc(C(C)(C)C)cc1 (stereo unspecified) | inactive: -2.3%
CC(C)c1ccc(O)c(C(=O)c2cnn(-c3ccccc3)c2)c1 | inconclusive: -42%
Cc1cc(C)n(-c2ncccc2[N+](=O)[O-])n1 | inconclusive: 24.9%
O=C(NCCc1ccccc1)c1noc2c1CCCCC2 | inactive: 0.4%
COc1ccc(NC(=O)N(C)C[C@H]2Oc3cc(Br)ccc3S(=O)(=O)N([C@H](C)CO)C[C@@H]2C)cc1 | inactive: 0.2%
c1coc(CSc2ncnc3c2oc2ccccc23)c1 | inconclusive: -23.8%
O=C(CCCN1CCC(C(=O)c2ccc(F)cc2)CC1)c1ccc(F)cc1 | inconclusive: -14.3%
COc1ccc(CCNC(=O)CNS(=O)(=O)c2ccc(Br)cc2)cc1 | inconclusive: 3%
O=C(CN1CCN(Cc2ccc(F)cc2Cl)CC1)NCc1ccccc1 | inconclusive: 2.7%
COc1ccc(C(C)=O)cc1COc1cccc2cccnc12 | inconclusive: 1.6%
CCCCCn1c(=O)c(C(=O)Nc2ccccc2Cl)c(O)c2ccccc21 | inconclusive: -10.5%
CC(CNC(=O)c1ccccc1Cl)NC(=O)c1ccccc1Cl (stereo unspecified) | inactive: 5.9%
O=C(Cn1c(CO)nc2ccccc21)Nc1cc(C(F)(F)F)ccc1N1CCOCC1 | inconclusive: 7.5%
CC1CCC(NC(=O)c2cc3c(s2)CCCC3)CC1 (stereo unspecified) | inconclusive: -11.9%

Structure (SMILES) | inhibition
C=CCn1c(O)c(C=NCCN2CCOCC2)c(=O)[nH]c1=S | inconclusive: -76.8%
Cn1c(SCc2nc(-c3ccccc3)no2)nnc1-c1ccco1 | inconclusive: 32%
CN(C(=O)c1ccncc1)C1CC(C)(C)N(O)C(C)(C)C1 | inconclusive: -18.5%
COC(=O)C1=C(C)Nc2nnnn2C1c1ccccc1Cl (stereo unspecified) | inconclusive: 3.6%
CCOc1ccc(NC(=O)CC2C(=O)N(CC)C(=S)N2NC(=O)c2ccncc2)cc1 (stereo unspecified) | inconclusive: -7.7%
CCn1c(SC(C)C(=O)NCC2CCCO2)nc2scc(-c3ccccc3)c2c1=O (stereo unspecified) | inconclusive: -1.4%
Cc1cc(NC(=O)NC(C)(C(F)(F)F)C(F)(F)F)no1 | inconclusive: -72.7%
Brc1ccc(NCc2cccc3ccccc23)nc1 | inconclusive: 5.9%
COCCNC(=O)CN(C(=O)c1ccc(N2CCCC2)nc1)c1ccc(Cl)cc1 | inconclusive: -19.6%
CC(=O)Nc1sc(N/N=C/c2ccccc2)nc1-c1ccc(C)cc1 | inconclusive: 19.7%
CSc1nc(Cl)cc(Nc2ccc(O)cc2)n1 | inactive: -2.2%
CCOc1cc(C(=O)OCC(=O)c2c(C)[nH]c3ccccc23)ccc1OCC(=O)N1CCOCC1 | inactive: -0.6%
CCC(C)NC(=O)CSc1nnc(-c2ccncc2)n1-c1ccc(OC)cc1 (stereo unspecified) | inconclusive: -22.6%
C(=N\n1cnnc1)/c1cccc(Oc2ccccc2)c1 | inactive: 0.4%
CN(C)c1cccc(C(=O)N/N=C/c2ccoc2)c1 | inconclusive: 19.2%
CC(C)C(NC(=O)c1ccccc1NC(=O)c1ccco1)C(=O)NNC(=O)c1ccncc1 (stereo unspecified) | inconclusive: -151%
Cc1c(/C=N/Nc2ccc(F)cc2)c(O)n(C)c(=O)c1C#N | inactive: -3.5%
O=C(Nc1ccccc1C(=O)NCc1ccco1)NC1CCCCC1 | inactive: 0.8%
CC(/C=C/c1ccc2c(c1)OCO2)=N/NC(=O)c1ccncc1 | inconclusive: -6.1%
O=C(CSc1nc2[nH]ncc2c(=O)[nH]1)Nc1ccccc1 | inactive: -2%
COC(=O)Nc1ccc2c(c1)N(C(=O)CCN1CCN3CCCC3C1)c1ccccc1CC2 (stereo unspecified) | inconclusive: 14.7%
CC(=O)N1CCc2cc(S(=O)(=O)NCCCN3CCN(Cc4ccccc4)CC3)ccc21 | inconclusive: -15.5%
CNC(=S)NNC(=O)c1sc(-c2cc(C)on2)nc1C | inconclusive: -12.2%

Structure (SMILES) | inhibition
CCCSc1cc(=O)n(-c2ccccc2)nc1C(=O)OCC | inactive: -1.5%
O=C(CSc1nnc(-c2ccc(Cl)cc2)n1-c1ccccc1)N/N=C/c1ccccc1C(=O)O | active: 40.6%
CC(C)(C)OC(=O)N1Cc2ccccc2C[C@H]1C(=O)O | inconclusive: -26.1%
Cc1cc(Br)ccc1NC(=O)c1ccco1 | inconclusive: -35.1%
CN(C)c1cccc2c(S(=O)(=O)N3CCCC3)cccc12 | inconclusive: -3.6%
CSc1ccc(C2(O)Cc3cccc[n+]3C2c2ccccc2)cc1 (stereo unspecified) | inconclusive: 7.9%
Cc1csc(-c2cc(C(=O)NCc3ccc(F)cc3)n[nH]2)c1 | inactive: -4.9%
O=C(COC(=O)c1cc(=O)[nH]c2ccccc12)Nc1nc(-c2ccccc2)cs1 | inactive: -0.4%
CCOC(=O)CN(C)Cc1cn(C)nc1-c1ccc(Oc2ccccc2)cc1 | inactive: 10.6%
Cc1ccc(Cl)cc1NC(=O)c1cc(NC(=O)C2CCCCC2C(=O)O)ccc1N1CCOCC1 (stereo unspecified) | inactive: 0%
O=C(C1CCN(S(=O)(=O)c2cccc3cccnc23)CC1)N1CCc2ccccc21 | inactive: 14.5%
NC(=NC(=O)c1ccc(OCC(F)(F)F)nc1)c1ccc(Cl)cc1 | inconclusive: 9.9%
O=[N+]([O-])c1cc(-c2ccc(/C=N/c3nc4ccccn4c3-c3ccco3)o2)ccc1Cl | inactive: -2%
Cc1ccc(OCC(=O)N2CCN(C(=O)c3cccs3)CC2)cc1 | inconclusive: 21.1%
Cc1cc(C)cc(Nc2nc(-c3ccc(S(=O)(=O)N4CCCC4)cc3)cs2)c1 | inactive: -16.1%
O=C(NCc1ccco1)C12CC3CC(C1)CC(C(=O)NCc1ccco1)(C3)C2 | inconclusive: 3.6%
O=c1cc(C(F)(F)F)[nH]c(=S)n1-c1ccccc1 | inconclusive: -39.3%
CC(C)(C)NC(=S)NNC(=O)[C@H]1C[C@@H]1c1ccccc1 | inconclusive: 7.4%
Nc1cc([N+](=O)[O-])ccc1N1C(=O)CCCC1=O | inconclusive: 9.4%
Cc1nc2ccc(Br)cc2c(-c2ccccc2)c1C(=O)O | inconclusive: 9.4%
Cn1c2ccccc2c2nnc(NN)nc21 | inconclusive: -23.1%
O=c1oc2ccc3ccccc3c2cc1-c1nnc(-c2cccs2)o1 | inactive: -5.9%
Cc1cc(/C=C2/SC(=S)N(c3cccc(Cl)c3)C2=O)c(C)n1-c1cccnc1 | active: 73.6%

Some of these compounds in order of length of the SMILES, smallest number first.
Structure (SMILES) | inhibition
Cc1nc2ccc(Br)cc2c(-c2ccccc2)c1C(=O)O | inconclusive: 9.4%
CSc1ccc(C2(O)Cc3cccc[n+]3C2c2ccccc2)cc1 (stereo unspecified) | inconclusive: 7.9%
Cc1ccc(OCC(=O)N2CCN(C(=O)c3cccs3)CC2)cc1 | inconclusive: 21.1%
O=C(C1CCN(S(=O)(=O)c2cccc3cccnc23)CC1)N1CCc2ccccc21 | inactive: 14.5%
Cc1cc(/C=C2/SC(=S)N(c3cccc(Cl)c3)C2=O)c(C)n1-c1cccnc1 | active: 73.6%

(more compounds)

Structure (SMILES) | inhibition
O=C1c2ccccc2C(=O)N1CCCc1nc2ccccc2c(=O)n1Cc1ccco1 | inconclusive: -6.5%
CC(C)(C)C1CCc2onc(C(=O)Nc3cccnc3)c2C1 (stereo unspecified) | inactive: -4.5%
Cc1nnn(C23C[C@@H]4C[C@@H](CC(C(=O)N5CCN(c6ccccc6)CC5)(C4)C2)C3)n1 | inconclusive: 4.4%
CCC(=O)c1ccc(OCC(O)Cn2nc(C)c(Br)c2C)cc1 (stereo unspecified) | inconclusive: -3.5%
CC(=O)Nc1ccc(C23CC4CC(CC(C4)C2)C3)cc1 | inconclusive: 58.4%
N#CC12CCCCC1CC1CCCCC1(C#N)N2N (stereo unspecified) | inconclusive: 147%
Cc1cc(C2CC(=O)Nc3ccccc3S2)c(C)s1 (stereo unspecified) | inconclusive: -7.7%
O=C(C1CC1)N1CCC(c2nc(-c3ccc(S(=O)(=O)N4CCCC4)cc3)no2)CC1 | inactive: -0.2%
Cc1cccn2c(=O)c(C=O)c(Sc3ncccn3)nc12 | inactive: 25.2%
c1cncc(-c2noc(-c3ccc4ccccc4c3)n2)c1 | inconclusive: 8.9%
COc1ccc(C(=O)/C=C/c2ccc3c(c2)OCCO3)cc1 | inconclusive: 30.9%
CN(C)C(=O)c1cn(CCC#N)nc1-c1ccc2ccccc2c1 | active: 52%
CCN1/C(=C/C=C/C=C/C=C/c2sc3ccccc3[n+]2CC)Sc2ccccc21 | inactive: -250%
O=C(c1ccc(Cl)cc1)c1cnc(Nc2ccccc2Cl)s1 | inactive: -6.8%
O=C(Nc1ccncc1)c1cn(-c2ccccc2)nc1-c1cccs1 | inactive: -21.3%
O=C(CNC(=O)c1ccc(Cl)c([N+](=O)[O-])c1)OC1CCCCC1=O (stereo unspecified) | inconclusive: 0.9%
O=C(CSCc1cnn(-c2ccccc2)c1-n1cccc1)NCc1ccccn1 | inactive: -3.5%
CCOC(=O)c1sc(NC(=S)NC(=O)c2ccccc2)nc1C | inactive: -5.4%
Cc1cc(C)c2nc(SCCC#N)nc(C)c2c1 | inconclusive: 21.1%
CCOC(=O)CSc1nc2c(c(=O)[nH]c(=O)n2C)n1Cc1ccccc1 | inconclusive: -0.2%
OCCCNc1nc(-c2ccccc2)nc2c1oc1ccccc12 | inconclusive: -46.9%
CCCCC(C(=O)NC(=O)NCc1ccccc1)N1C(=O)c2ccccc2C1=O (stereo unspecified) | inconclusive: 21.8%

— PubChem BioAssay AID588497 (NMMLSC, 2011)
